According to the supplement of paper PMC4862054:
Most values lie at the level of the controls, where differences are scatter.

Tests used:
Assay in all cases: normalised response (% of control), CellTox Green; higher = less cell death (100 = DMSO, 0 = benzethonium chloride kill control)
Details in all cases: incubation time: 72 h
BT-474 = tested on: BT-474
Experimental: (§1)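 DSRT, 72 h incubation, CellTox Green / CellTiter-Glo readout. Signal is normalised to DMSO and benzethonium chloride controls. Value is the normalised response at the lowest tested concentration.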

MDA-MB-468 = tested on: MDA-MB-468
Experimental: as §1

HCC1937 = tested on: HCC1937
Experimental: as §1

BT-549 = tested on: BT-549
Experimental: as §1

CAL-85-1 = tested on: CAL-85-1
Experimental: as §1

CAL-148 = tested on: CAL-148
Experimental: as §1

HCC1599 = tested on: HCC1599
Experimental: as §1

MDA-MB-436 = tested on: MDA-MB-436
Experimental: as §1

MCF-10A = tested on: MCF-10A
Experimental: as §1

HCC1143 = tested on: HCC1143
Experimental: as §1

MDA-MB-231 = tested on: MDA-MB-231
Experimental: as §1

CAL-120 = tested on: CAL-120
Experimental: as §1

DU-4475 = tested on: DU-4475
Experimental: as §1

CAL-51 = tested on: CAL-51
Experimental: as §1

Hs578T = tested on: Hs578T
Experimental: as §1

MFM-223 = tested on: MFM-223
Experimental: as §1

HDQ-P1 = tested on: HDQ-P1
Experimental: as §1

MDA-MB-453 = tested on: MDA-MB-453
Experimental: as §1

`COc1cc(O)c2c(c1)/C=C/C[C@H](O)[C@H](O)C(=O)/C=C\C[C@H](C)OC2=O` [(5Z)-7-Oxozeaenol] (1 nM) was tested, and the normalised response (BT-474) was 96.5%, the normalised response (MDA-MB-468) was 82.2% and the normalised response (HCC1937) was 112%. For the same compound, the normalised response (BT-549) was 103%, the normalised response (CAL-85-1) was 90.6% and the normalised response (CAL-148) was 106%. For the same compound, the normalised response (HCC1599) was 111%, the normalised response (MDA-MB-436) was 96.5% and the normalised response (MCF-10A) was 98.6%. For the same compound, the normalised response (HCC1143) was 82.4%, the normalised response (MDA-MB-231) was 121% and the normalised response (CAL-120) was 98.6%. For the same compound, the normalised response (DU-4475) was 109%, the normalised response (CAL-51) was 110% and the normalised response (Hs578T) was 104%. It also gave a normalised response (MFM-223) of 104%, a normalised response (HDQ-P1) of 92.2% and a normalised response (MDA-MB-453) of 96.9%.

In the case of `CCCCCOC(=O)Nc1nc(=O)n([C@@H]2O[C@H](C)[C@@H](O)[C@H]2O)cc1F` [Capecitabine] (1 nM), the normalised response (BT-474) is reported as 101%, the normalised response (HCC1937) is reported as 101% and the normalised response (BT-549) is reported as 73.8%. The normalised response (CAL-85-1) was 103%, the normalised response (CAL-148) was 102% and the normalised response (HCC1599) was 93.9%. The normalised response (MDA-MB-436) was 95.2%, the normalised response (MCF-10A) was 86.7% and the normalised response (HCC1143) was 89.2%. For the same compound, the normalised response (MDA-MB-231) was 113%, the normalised response (CAL-120) was 99.2% and the normalised response (DU-4475) was 103%. It also gave a normalised response (CAL-51) of 111%, a normalised response (Hs578T) of 104% and a normalised response (MFM-223) of 93.5%. The normalised response (HDQ-P1) was 74.6% and the normalised response (MDA-MB-453) was 107%.

`Cc1ccc(-c2cc(C(F)(F)F)nn2-c2ccc(S(N)(=O)=O)cc2)cc1` [Celecoxib] (1 nM) gave a normalised response (BT-474) of 96.7%, a normalised response (MDA-MB-468) of 86% and a normalised response (HCC1937) of 102%. It also gave a normalised response (BT-549) of 97.9%, a normalised response (CAL-85-1) of 97.3% and a normalised response (CAL-148) of 70.4%. The normalised response (HCC1599) was 90.8%, the normalised response (MDA-MB-436) was 84.1% and the normalised response (MCF-10A) was 95%. The normalised response (HCC1143) was 107%, the normalised response (MDA-MB-231) was 112% and the normalised response (CAL-120) was 106%. The normalised response (DU-4475) was 103%, the normalised response (CAL-51) was 93.1% and the normalised response (Hs578T) was 113%. The normalised response (MFM-223) was 99.2%, the normalised response (HDQ-P1) was 101% and the normalised response (MDA-MB-453) was 99.3%.

`O=P1(N(CCCl)CCCl)NCCCO1` (centres undefined) [Cyclophosphamide] (4 nM) gave a normalised response (BT-474) of 101%, a normalised response (MDA-MB-468) of 96.2% and a normalised response (HCC1937) of 98.1%. For the same compound, the normalised response (BT-549) was 95.8%, the normalised response (CAL-85-1) was 98.5% and the normalised response (CAL-148) was 86.4%. It also gave a normalised response (HCC1599) of 101%, a normalised response (MDA-MB-436) of 100% and a normalised response (MCF-10A) of 103%. The normalised response (HCC1143) was 68.2%, the normalised response (MDA-MB-231) was 106% and the normalised response (CAL-120) was 97.1%. For the same compound, the normalised response (DU-4475) was 102%, the normalised response (CAL-51) was 114% and the normalised response (Hs578T) was 62.6%. It also gave a normalised response (MFM-223) of 101%, a normalised response (HDQ-P1) of 101% and a normalised response (MDA-MB-453) of 106%.

`Nc1ccn([C@@H]2O[C@H](CO)[C@@H](O)[C@@H]2O)c(=O)n1` [Cytarabine] (1 nM) showed a normalised response (BT-474) of 100%, a normalised response (MDA-MB-468) of 99.7% and a normalised response (HCC1937) of 113%. The normalised response (BT-549) was 106%, the normalised response (CAL-85-1) was 102% and the normalised response (CAL-148) was 104%. It also gave a normalised response (HCC1599) of 118%, a normalised response (MDA-MB-436) of 82.6% and a normalised response (MCF-10A) of 109%. It also gave a normalised response (HCC1143) of 134%, a normalised response (MDA-MB-231) of 115% and a normalised response (CAL-120) of 106%. For the same compound, the normalised response (DU-4475) was 114%, the normalised response (CAL-51) was 102% and the normalised response (Hs578T) was 122%. It also gave a normalised response (MFM-223) of 102%, a normalised response (HDQ-P1) of 93.3% and a normalised response (MDA-MB-453) of 109%.

For `C[C@@H]1C[C@H]2[C@@H]3CCC4=CC(=O)C=C[C@]4(C)[C@@]3(F)[C@@H](O)C[C@]2(C)[C@@]1(O)C(=O)CO` [Dexamethasone] (1 nM), the normalised response (BT-474) was 99.7%, the normalised response (MDA-MB-468) was 63.4% and the normalised response (HCC1937) was 58.8%. It also gave a normalised response (BT-549) of 97.4%, a normalised response (CAL-85-1) of 104% and a normalised response (CAL-148) of 79.4%. The normalised response (HCC1599) was 93.1%, the normalised response (MDA-MB-436) was 68.3% and the normalised response (MCF-10A) was 72.9%. The normalised response (HCC1143) was 113%, the normalised response (MDA-MB-231) was 92.3% and the normalised response (CAL-120) was 102%. For the same compound, the normalised response (DU-4475) was 96.3%, the normalised response (CAL-51) was 73.3% and the normalised response (MFM-223) was 66.2%. The normalised response (HDQ-P1) was 65.7% and the normalised response (MDA-MB-453) was 64.5%.

In the case of `COC1=C2C[C@@H](C)C[C@H](OC)[C@H](O)[C@@H](C)/C=C(\C)[C@H](OC(N)=O)[C@@H](OC)/C=C\C=C(/C)C(=O)NC(=CC1=O)C2=O` [Geldanamycin] (1 nM), the normalised response (BT-474) is reported as 99.7%, the normalised response (HCC1937) is reported as 109% and the normalised response (BT-549) is reported as 69.7%. It also gave a normalised response (CAL-85-1) of 96.2%, a normalised response (HCC1599) of 99.1% and a normalised response (MDA-MB-436) of 58.8%. The normalised response (MCF-10A) was 107%, the normalised response (HCC1143) was 116% and the normalised response (MDA-MB-231) was 107%. It also gave a normalised response (CAL-120) of 99%, a normalised response (DU-4475) of 102% and a normalised response (CAL-51) of 109%. For the same compound, the normalised response (Hs578T) was 76.4%, the normalised response (MFM-223) was 99.9% and the normalised response (MDA-MB-453) was 103%.

In the case of `O=C(O)CNC(=O)c1c(O)c2ccccc2n(Cc2ccccc2)c1=O` [IOX-2] (5 nM), the normalised response (BT-474) is reported as 100%, the normalised response (MDA-MB-468) is reported as 114% and the normalised response (HCC1937) is reported as 114%. It also gave a normalised response (BT-549) of 89.4%, a normalised response (CAL-85-1) of 110% and a normalised response (HCC1599) of 104%. It also gave a normalised response (MCF-10A) of 74.9%, a normalised response (HCC1143) of 127% and a normalised response (MDA-MB-231) of 117%. The normalised response (CAL-120) was 102%, the normalised response (DU-4475) was 103% and the normalised response (CAL-51) was 95.1%. It also gave a normalised response (Hs578T) of 78.2%, a normalised response (MFM-223) of 107% and a normalised response (MDA-MB-453) of 97.6%.

Work on `CCOc1cc2ncc(C#N)c(Nc3ccc(OCc4ccccn4)c(Cl)c3)c2cc1NC(=O)/C=C/CN(C)C` [Neratinib] (0.1 nM) yielded a normalised response (BT-474) of 64.6%, a normalised response (MDA-MB-468) of 86.2% and a normalised response (HCC1937) of 105%. For the same compound, the normalised response (BT-549) was 101%, the normalised response (CAL-85-1) was 104% and the normalised response (HCC1599) was 114%. For the same compound, the normalised response (MDA-MB-436) was 92.8%, the normalised response (MCF-10A) was 108% and the normalised response (HCC1143) was 85.3%. It also gave a normalised response (MDA-MB-231) of 123%, a normalised response (CAL-120) of 108% and a normalised response (DU-4475) of 115%. The normalised response (CAL-51) was 108%, the normalised response (Hs578T) was 110% and the normalised response (MFM-223) was 94.2%. It also gave a normalised response (HDQ-P1) of 99% and a normalised response (MDA-MB-453) of 106%.

In the case of `CC[C@@]1(O)C(=O)OCc2c1cc1n(c2=O)Cc2cc3c(CN(C)C)c(O)ccc3nc2-1` [Topotecan] (1 nM), the normalised response (BT-474) is reported as 101%, the normalised response (MDA-MB-468) is reported as 84.5% and the normalised response (HCC1937) is reported as 58.7%. For the same compound, the normalised response (BT-549) was 101%, the normalised response (CAL-85-1) was 96% and the normalised response (HCC1599) was 103%. For the same compound, the normalised response (MDA-MB-436) was 92.8%, the normalised response (MCF-10A) was 89.8% and the normalised response (HCC1143) was 123%. The normalised response (MDA-MB-231) was 111%, the normalised response (CAL-120) was 104% and the normalised response (DU-4475) was 98.2%. It also gave a normalised response (CAL-51) of 66.3%, a normalised response (Hs578T) of 101% and a normalised response (MFM-223) of 101%. For the same compound, the normalised response (MDA-MB-453) was 102%.

With `COc1cc2/c(=N/c3ccc(Br)cc3F)nc[nH]c2cc1OCC1CCN(C)CC1` [Vandetanib] (0.1 nM) the normalised response (BT-474) was 97%, the normalised response (MDA-MB-468) was 105% and the normalised response (HCC1937) was 97.8%. For the same compound, the normalised response (BT-549) was 104%, the normalised response (CAL-85-1) was 107% and the normalised response (CAL-148) was 57.6%. For the same compound, the normalised response (MDA-MB-436) was 94.2%, the normalised response (MCF-10A) was 73.4% and the normalised response (CAL-120) was 97.8%. For the same compound, the normalised response (DU-4475) was 89.9%, the normalised response (CAL-51) was 108% and the normalised response (Hs578T) was 85.2%. It also gave a normalised response (MFM-223) of 83.3%, a normalised response (HDQ-P1) of 98.8% and a normalised response (MDA-MB-453) of 97.5%.
